Laboratory results as given in article PMC5736349.

What was measured:
Experiment in all cases: co-IP; DAOY cells transfected for 48 hr with Atoh1-GFP WT, Y78F or Y78D and E47-FLAG or E2.2-FLAG; n = 3
Atoh1-GFP Y78F (mouse) = biological target: T1, Atoh1-GFP Y78F (mouse) (UniProt P48985)
T1 sequence: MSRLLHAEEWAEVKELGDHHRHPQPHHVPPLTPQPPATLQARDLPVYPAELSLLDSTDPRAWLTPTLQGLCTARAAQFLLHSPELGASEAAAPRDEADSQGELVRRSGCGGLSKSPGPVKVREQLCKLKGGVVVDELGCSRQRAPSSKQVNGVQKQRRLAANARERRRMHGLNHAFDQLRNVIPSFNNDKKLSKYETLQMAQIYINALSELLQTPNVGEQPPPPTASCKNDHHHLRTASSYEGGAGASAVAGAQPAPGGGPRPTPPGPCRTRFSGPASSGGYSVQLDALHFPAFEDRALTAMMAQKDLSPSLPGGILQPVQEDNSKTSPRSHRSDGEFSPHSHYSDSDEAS

Atoh1-GFP Y78D (mouse) = biological target: T2, Atoh1-GFP Y78D (mouse) (UniProt P48985)
T2 sequence: T1 sequence with F78D

Atoh1-GFP WT (mouse) = biological target: T3, Atoh1-GFP WT (mouse) (UniProt P48985)
T3 sequence: T1 sequence with F78Y

Measured: binding

E47-FLAG (from UniProt P15806-2)
binds: all assays above

Positions count from the first letter of the chain named. No constants are given. Whether binding was seen depends on the method and setting. In cells and extracts the contact can be indirect. A result given as binding can be weak or reduced; the word gives no strength. Where a sequence is shown, tags or fusion partners need not be part of it.
